{"source": "patent US20030139332A1", "about": "“Use of matrix metalloproteinase inhibitors to mitigate nerve damage” (The Regents of the University of California, priority 2001, published 2003)", "origin": "cited, not measured here", "system": "MMP-9", "settings": "Xu et al. (2001) J. Neurosci., 21:92-97; cited from earlier work", "note": "At least one structure is not confirmed: it was looked up by name or label, or the drawing left a doubt."}
{"molecule": "C[C@H]1C[C@@H]2[C@H]([C@@H](O)C[C@@]3(C)[C@H]2CC[C@]3(O)C(=O)CO)[C@@]2(C)C=CC(=O)C=C12", "note": "[methylprednisolone]", "values": [{"measurement": "expression of MMP-9 after spinal cord injury", "value": "suppresses the expression of MMP-9"}]}
